Measurements published in PMC4012723.
The exact form of at least one protein or probe is not confirmed. A weaker result is weaker than the reference pair of the same experiment.

The chains behind the UniProt entries cited, without tags or fusion partners. Where a name states a change or a piece, a line headed by the entry shows the natural chain unless it says otherwise.
UniProt Q9BXW9: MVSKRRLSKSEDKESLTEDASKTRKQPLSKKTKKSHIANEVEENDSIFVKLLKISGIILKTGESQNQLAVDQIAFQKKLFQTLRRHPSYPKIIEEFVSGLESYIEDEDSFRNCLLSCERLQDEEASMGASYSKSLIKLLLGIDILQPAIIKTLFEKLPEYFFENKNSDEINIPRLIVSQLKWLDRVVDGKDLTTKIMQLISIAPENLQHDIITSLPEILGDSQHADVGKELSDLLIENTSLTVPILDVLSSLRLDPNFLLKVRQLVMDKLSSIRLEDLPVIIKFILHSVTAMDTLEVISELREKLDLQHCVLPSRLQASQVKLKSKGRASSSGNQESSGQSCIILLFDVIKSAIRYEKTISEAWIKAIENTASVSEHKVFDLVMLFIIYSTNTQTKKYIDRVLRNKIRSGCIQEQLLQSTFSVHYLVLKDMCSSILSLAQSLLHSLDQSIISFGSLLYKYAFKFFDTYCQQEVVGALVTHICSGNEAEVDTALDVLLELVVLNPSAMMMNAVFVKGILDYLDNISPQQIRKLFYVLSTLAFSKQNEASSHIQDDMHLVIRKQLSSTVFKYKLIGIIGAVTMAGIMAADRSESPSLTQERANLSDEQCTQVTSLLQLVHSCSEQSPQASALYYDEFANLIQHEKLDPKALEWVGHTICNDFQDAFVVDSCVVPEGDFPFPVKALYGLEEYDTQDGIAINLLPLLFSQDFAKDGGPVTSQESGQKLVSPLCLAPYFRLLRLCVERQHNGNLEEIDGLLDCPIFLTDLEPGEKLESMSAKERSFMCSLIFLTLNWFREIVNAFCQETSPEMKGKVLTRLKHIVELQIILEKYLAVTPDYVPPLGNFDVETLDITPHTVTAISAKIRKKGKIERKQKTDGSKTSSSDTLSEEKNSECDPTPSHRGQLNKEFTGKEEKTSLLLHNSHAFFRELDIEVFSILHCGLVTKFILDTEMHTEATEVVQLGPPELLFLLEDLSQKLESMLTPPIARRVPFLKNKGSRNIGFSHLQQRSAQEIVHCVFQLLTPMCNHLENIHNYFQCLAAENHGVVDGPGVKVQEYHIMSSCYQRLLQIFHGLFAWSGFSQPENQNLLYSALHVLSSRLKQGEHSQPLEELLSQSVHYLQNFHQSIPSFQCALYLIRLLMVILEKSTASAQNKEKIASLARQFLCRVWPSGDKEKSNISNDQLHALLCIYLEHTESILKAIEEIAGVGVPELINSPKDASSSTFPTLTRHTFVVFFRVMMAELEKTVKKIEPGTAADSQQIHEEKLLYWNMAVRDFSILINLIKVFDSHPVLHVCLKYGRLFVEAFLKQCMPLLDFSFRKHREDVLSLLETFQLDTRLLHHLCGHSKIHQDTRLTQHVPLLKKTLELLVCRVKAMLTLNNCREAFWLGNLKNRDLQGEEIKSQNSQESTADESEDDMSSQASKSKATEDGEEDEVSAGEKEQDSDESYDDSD

Target: monoubiquitinated FANCD2 (ub-D2) (UniProt Q9BXW9)
Assay: EMSA
Details: 20 mM HEPES pH 7.9, 50 mM NaCl, 20% glycerol, 2 mM EDTA, 1 mM DTT, 0.1 mg/ml BSA, ~20 fmol DNA in 21 ul, 37 C 20 min; 6% native PAGE, 0.5x TBE; recombinant protein; label: 32P; probe letters rebuilt from the primers and the genome

Sequence	binding result
AGCCAAGGTGCCTCTTTCAGCACAGACAGCAGAAGAGGCCTGTCTGCTCCTCCCGGAC (double strand) [B17 (GM-CSF origin)]	binds more weakly
CCCCAGGGAGTAGGTTGTGATGGGGGACCTATCCCAGGAAAACTCAGCAGGAAAGGACACTGGGCCTGCTGCTTGGTCTTTGGGCTTTTCTCAAATAACA (double strand) [B13 (non-origin)]	binds more weakly
CTCCACCCCCAAGGAAAAAGGTCACTGGCTAGTGTAGCTAGTGTAAACAGGACCCAGGCGATGCATGGGACCCTGCC (double strand) [B48 (Lamin B2 origin)]	binds
GTCTGACCTGCGGAGGTAGTTTGGGTGGCTACTTGGTGTTGGACTTGGCTAAATAAATACCAGAGGCAGATAAAACAAGCGAGGGGCCTAGGTCAAGAGTTCCAAGTTTGTTCCTCGATAAAAAACGACAAACGCGGTCGGGGGCGGTGATGCCCGCCTGCAGTCCCAACACTTTAGGAAGCTGAGGCGGGGGGATCGCAGGAGTTCGAGACCAGTCTGGGCAACATAATGAGACCATCCCCACCACCTCCCGTCCTTAATTTTTTTTAATAAAAAAAATCTTTAAGTGAGAAATGCATCTGTAATGTCCTTATTAACCAAAAACGCCTAAGGGATAAAGAAGCACACGCTCCCTAGCCAACGCTAGAGGAACACACCCCGAGAGCTGGTGCTGTAGGACCCAGTTTTCCCGCGAAAACGCTGCCGCGCAGGGGGTCAGACCATCTGGACCAAGGGGGGCCGAGCGAGGCCTACTTCTGGTTT (double strand) [MCM4 origin]	binds more weakly
